# Measured values published in PubChem BioAssay AID1259354 (Paczesny and Yang Labs, IUPUI and University of Michigan, 2018).
# Amino acid sequences for entries named in this document (tags omitted). A change or cut given only in a name is not applied to a line headed by its entry.
# UniProt Q01638: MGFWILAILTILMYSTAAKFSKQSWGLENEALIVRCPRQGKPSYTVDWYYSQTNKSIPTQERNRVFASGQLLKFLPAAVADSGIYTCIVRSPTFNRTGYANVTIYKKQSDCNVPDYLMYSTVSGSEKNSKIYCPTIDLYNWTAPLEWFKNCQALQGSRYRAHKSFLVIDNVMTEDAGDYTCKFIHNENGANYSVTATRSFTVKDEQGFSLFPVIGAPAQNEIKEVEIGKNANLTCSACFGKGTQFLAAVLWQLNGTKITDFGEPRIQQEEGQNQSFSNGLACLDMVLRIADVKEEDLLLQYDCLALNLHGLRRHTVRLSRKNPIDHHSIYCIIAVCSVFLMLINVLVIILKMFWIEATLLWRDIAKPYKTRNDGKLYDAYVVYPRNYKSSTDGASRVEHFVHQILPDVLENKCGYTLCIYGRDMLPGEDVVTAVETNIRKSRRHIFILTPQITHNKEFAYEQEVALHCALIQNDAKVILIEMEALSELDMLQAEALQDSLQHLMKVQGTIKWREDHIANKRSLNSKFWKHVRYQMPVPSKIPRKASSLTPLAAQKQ
# The campaign covered roughly 78,000 compounds. About 1,800 (2.3%) were called active. The shares of active, inactive and inconclusive entries below differ from those in the screen. Cut-off read from the data, not from the text of the source: active = inhibition above about 30%; inconclusive = mostly about 10% to 28%; inactive = weaker than that.
# Biological target: Interleukin-1 receptor-like 1 (Homo sapiens) (UniProt Q01638)
# Assay: blocks human ST2 binding to IL-33, primary screen, biochemical, AlphaLISA (AID 1259354)
# Settings: AlphaLISA ST2-Fc/biotin-IL-33 interaction, 1 h; at 17 µM, active compounds read high
row,Compound,inhibition
1,COc1ccc(N=Cc2c(O)cc(C)c(Cl)c2C)cc1,active: 43%
2,Cc1cc(C)nc(Sc2ccc(S(=O)(=O)C(F)(F)F)cc2[N+](=O)[O-])n1,inconclusive: 21%
3,Cc1cc(N2CCOCC2)nc2ccc(NC(=O)CCC(=O)N3CCOCC3)cc12,inactive
4,Cc1ccccc1N1CCN(Cc2c[nH]c3ccccc23)CC1,inconclusive: 26%
5,CCc1ncc(C(=O)NCCC(=O)Nc2ccc(C)cc2C)cn1,inconclusive: 10%
6,Cc1ccsc1[C@@H]1CCN(C(=O)c2cc3cccnc3nc2C)C[C@H]1O,inconclusive: 19%
7,CC(=O)c1cc(C(=O)N2CCc3c(cc(-c4cccc5nc(C)ccc45)c(=O)n3CC3CC3)C2)cs1,inactive
8,O=S(=O)(NCC1CCN(S(=O)(=O)c2ccc(F)cc2)CC1)c1ccc(F)cc1,inconclusive: 21%
9,CO[C@H]1CN(c2nnnn2-c2ccc(-c3ccccc3)cc2)CC[C@H]1N,inactive
10,CN(Cc1cccc2cccnc12)C(=O)c1cn(CC2CCCNC2)nn1 (stereo unspecified),inconclusive: 13%
11,O=[N+]([O-])c1ccccc1S(=O)(=O)Nc1ccccc1Br,inconclusive: 13%
12,COc1ccc(/C=C/C(=O)N2CCc3c(cnc(C)c3CNC(=O)CN3CCCCC3)C2)cc1,inconclusive: 14%
13,Cc1cc(C(F)(F)F)nc(NCc2ccco2)n1,inactive
14,COc1cc2oc(=O)ccc2c(OC)c1OC,inactive
15,COc1ccc2c(c1)CCC/C2=N\OC(=O)c1ccccc1OC,inconclusive: 16%
16,CN(C)CCC=C1c2ccccc2CCc2ccccc21,inconclusive: 12%
17,CCOc1ccc(/C=C2\NC(=O)N(Cc3ccc(Cl)cc3)C2=O)cc1,inconclusive: 14%
18,COc1cccc(/C=C2/C(=O)N(c3ccc([N+](=O)[O-])cc3)N=C2C)c1O,inconclusive: 14%
19,CCCn1cc(SCC(=O)NCc2ccco2)c2ccccc21,inconclusive: 28%
20,O=C(CSc1nc2c(c(=O)n1-c1ccccc1)SCC2)c1ccc(Cl)cc1,inconclusive: 21%
21,Cc1cc(Br)ccc1NC(=O)CN1C(=O)c2ccccc2S1(=O)=O,inactive
22,Cc1cccc(N2C(=O)CSC2c2ccccc2)c1 (stereo unspecified),inactive
23,Cc1ccc(NS(=O)(=O)c2cccc3c2C(=O)c2ccccc2C3=O)c(C)c1,active: 64%

row,Compound,inhibition
1,CSc1nc2c(c(=O)[nH]1)C(c1cccc(F)c1)C1=C(CCCC1=O)N2 (stereo unspecified),inactive
2,CC(C)(NC(=O)c1cccs1)C(=O)N1CCCC2(CNC(=O)O2)C1 (stereo unspecified),inconclusive: 14%
3,O=C(Cn1c2ccccc2c(=O)c2ccccc21)Nc1ccc(F)cc1Cl,inconclusive: 17%
4,CC(C)(C)c1ccc(C(=O)CC2(O)C(=O)Nc3ccc(Br)cc32)cc1 (stereo unspecified),inconclusive: 24%
5,CCc1ccc(CN2CCN(CC=C(C)C)C(CCO)C2)o1 (stereo unspecified),inactive
6,COc1ccccc1N(CC(=O)Nc1ccc2c(c1)OCO2)S(=O)(=O)c1ccc(C)cc1,inconclusive: 13%
7,O=C(O)c1cc(Br)ccc1N=Cc1nc(-c2ccccc2)oc1O,inactive
8,COc1c(O[C@@H]2O[C@H](CO[C@H]3OC[C@](O)(CO)[C@H]3O)[C@@H](O)[C@H](O)[C@H]2O)cc2occ(-c3ccc(O)cc3)c(=O)c2c1O,inconclusive: 12%
9,O=C(c1ccc(-c2ncn[nH]2)cc1)N1CCOC(C(F)(F)F)C1 (stereo unspecified),inconclusive: 12%
10,O=C(Nc1ccc(N2CCOCC2)cc1)c1ccc(Br)cc1,inactive
11,CN1C(=O)C2(CCCN(C(=O)CCc3csc(N)n3)C2)c2ccccc21 (stereo unspecified),inconclusive: 19%
12,COc1cc(C(=O)Nc2cc(Cl)ccc2OCc2cc(=O)n3oc(C)cc3n2)cc(OC)c1OC,inactive
13,CC(=O)N1CC[C@@H](CC(=O)O)[C@@H](CCN2CCN(c3cccc(C(F)(F)F)c3)CC2)C1,inconclusive: 11%
14,Cn1c(=O)c2c(nc(N3CCOCC3)n2Cc2c(F)cccc2Cl)n(C)c1=O,active: 37%
15,Cn1c(=O)c2c(nc3[nH]c(C45CC6CC(CC(C6)C4)C5)cn32)n(C)c1=O,inconclusive: 11%
16,COc1ccc2nc(Nc3nnc(-c4ccc(Cl)cc4)o3)sc2c1,inconclusive: 14%
17,O=C(NC[C@H]1O[C@@H](CO)[C@@H](O)[C@H]1N1CCN(c2cccc(C(F)(F)F)c2)CC1)Nc1ccc(F)cc1F,inconclusive: 13%
18,CN1CCCn2nc(C(=O)NCCOc3cccc4cccnc34)cc2C1,inconclusive: 19%
19,C[C@@H]1C(=O)O[C@H]2[C@H](O)C34[C@H]5C[C@@H](C(C)(C)C)C36[C@@H](OC(=O)[C@@H]6O)O[C@@]4(C(=O)O5)[C@@]12O (stereo partly specified),inconclusive: 11%
20,Cc1cccnc1CC(C)NC(=O)c1c(-c2ccccc2)noc1C (stereo unspecified),inconclusive: 18%
21,C=CCCN1CC=C(CCNC(=O)C2CCCCC2)CC1,inconclusive: 19%
22,COc1ccc(-c2noc(CN3CCC(OCc4ccccn4)CC3)n2)c(OC)c1OC,inconclusive: 20%
23,O=[N+]([O-])c1ccc(N2CCOCC2)c(F)c1,inconclusive: 11%

row,Compound,inhibition
1,CCCCN(C)S(=O)(=O)c1ccc(C(=O)Nc2nnc(-c3ccccc3Cl)o2)cc1,inconclusive: 11%
2,CC(=O)c1ccc(N2C(=O)C3C4c5ccccc5C(C)(c5ccccc54)C3C2=O)cc1 (stereo unspecified),inconclusive: 11%
3,O=c1[nH]nc(C2CCC2)n1CCc1ccccc1F,inconclusive: 14%
4,O=C(O)/C(=C/c1ccc2c(c1)OCO2)NC(=O)c1ccccc1Cl,inactive
5,C=CCSc1nnc2c(n1)OC(c1sccc1C)N(C(C)=O)c1ccccc1-2 (stereo unspecified),inconclusive: 26%
6,Nc1nc(NCC2CCOCC2)cc(N2CCOCC2)n1,inactive
7,CC(C)c1nccn1C(C)C(=O)NCc1cc2ccc(F)cc2[nH]c1=O (stereo unspecified),inconclusive: 11%
8,O=C(c1ccc(NS(=O)(=O)c2cccs2)cc1)N1CCCC1,inconclusive: 18%
9,COc1ccc(/C=C2\SC(N3CCOCC3)=NC2=O)c(OC)c1,inactive
10,COc1cc(NC(=Nc2nc(C)cc(C)n2)NC(=O)c2ccccc2)c(OC)cc1Cl,inconclusive: 11%
11,CCC(=O)N1CCN=C1SCc1ccccc1F,inconclusive: 10%
12,Cc1c(C(=O)NC2CC2)oc2ccc(S(=O)(=O)N3CCCC(C)C3)cc12 (stereo unspecified),inactive
13,CC(=O)c1c(C)nn(CC(=O)N2CC(c3ccncc3)C2)c1C,inconclusive: 14%
14,Cc1nc(C)c(CC(=O)N(C)C2Cc3ccccc3C2)c(=O)[nH]1,inactive
15,CCO[C@H]1COC[C@@H]1NC(=O)c1nc2c(s1)CCCC2,inconclusive: 10%
16,Cc1nc2ccc(Cl)cn2c1C(=O)N1CC2(CCNCC2)CC1C(=O)O (stereo unspecified),inactive
17,FC(F)(Cl)Oc1ccc(Nc2nc(-n3ccnc3)nc(-n3ccnc3)n2)cc1,inconclusive: 28%
18,COc1cc(C)c2c(c1C)C[C@H]([C@H](C)C(=O)N1CCSCC1)CC2,inconclusive: 14%
19,Cc1ccc(OCC(=O)Nc2ccc(N3CCCC3)cc2)cc1C,active: 59%
20,COCC1(C(=O)N2CC[C@@H](c3ccc4c(c3)OCO4)[C@H](O)C2)CCC1,inconclusive: 21%
21,Cc1nn(C(C)C)c(C)c1CN(C)C(=O)CC1C(=O)NCCN1CC(C)C (stereo unspecified),inconclusive: 25%
22,COc1ccc(C)cc1NC(=O)C1(S(=O)(=O)c2ccc(Cl)cc2)CC1,inconclusive: 15%
23,CC1CCC(NC(=O)C2(C)CCC(=O)N2Cc2ccc(F)cc2Cl)CC1 (stereo unspecified),inconclusive: 13%

# Filtered by structure, the entries above with two or more sulfur atoms (5)
row,Compound,inhibition
2,Cc1cc(C)nc(Sc2ccc(S(=O)(=O)C(F)(F)F)cc2[N+](=O)[O-])n1,inconclusive: 21%
8,O=S(=O)(NCC1CCN(S(=O)(=O)c2ccc(F)cc2)CC1)c1ccc(F)cc1,inconclusive: 21%
20,O=C(CSc1nc2c(c(=O)n1-c1ccccc1)SCC2)c1ccc(Cl)cc1,inconclusive: 21%
5,C=CCSc1nnc2c(n1)OC(c1sccc1C)N(C(C)=O)c1ccccc1-2 (stereo unspecified),inconclusive: 26%
8,O=C(c1ccc(NS(=O)(=O)c2cccs2)cc1)N1CCCC1,inconclusive: 18%

# As entered above:
# Under inhibition, COc1cc(NC(=Nc2nc(C)cc(C)n2)NC(=O)c2ccccc2)c(OC)cc1Cl shows inconclusive: 11%
# Under inhibition, COc1cc(C)c2c(c1C)C[C@H]([C@H](C)C(=O)N1CCSCC1)CC2 shows inconclusive: 14%

# Additional compounds

row,Compound,inhibition
1,Cc1cc(Br)ccc1N1C(=O)C2C3CCC(C3)C2C1=O (stereo unspecified),inconclusive: 12%
2,O=C(CN(c1ccccc1)S(=O)(=O)c1ccccc1[N+](=O)[O-])N[C@H]1C[C@@H]2CC[C@H]1C2,inactive
3,O=C1CSc2ccccc2N1Cc1ccc(F)cc1Cl,inactive
4,CCCN(CCO)Cc1ccccc1F,inconclusive: 13%
5,Cc1ccc(C(=O)NC(NC(=O)c2ccccc2)C(Cl)Cl)cc1 (stereo unspecified),inconclusive: 13%
6,Cc1ccc(-c2nc(N3CCC4(CC3)OCCO4)c3ccccc3n2)cc1,inactive
7,CC(=O)C1=C(C)Nc2ncnn2C1c1ccccn1 (stereo unspecified),inconclusive: 13%
8,Cc1ccc(N2CSC3=C(C#N)C(c4ccccc4)CC(=O)N3C2)cc1 (stereo unspecified),inconclusive: 17%
9,CN(Cc1ccc(-n2cccn2)cc1)CC1CCC(N)CC1 (stereo unspecified),inconclusive: 18%
10,COc1ccc(C2=N/C(=C\c3cc(OC)c(OC)c(OC)c3)C(=O)O2)cc1[N+](=O)[O-],inactive
11,O=C(Cn1c(=O)c2sccc2n(Cc2cc(=O)n3ccccc3n2)c1=O)NCc1ccco1,inconclusive: 27%
12,Cc1[nH]cnc1-c1nccn1CC(c1ccccc1)N1CCCCCC1 (stereo unspecified),inconclusive: 23%
13,COCCN1C(=O)c2cc(C(=O)Nc3cc(F)ccc3F)ccc2C1Nc1cc(F)ccc1F (stereo unspecified),inactive
14,COc1ccc(N2CCN(c3ncnc4c3cnn4-c3cccc(C)c3)CC2)cc1,inconclusive: 20%
15,Cc1nc2ccc(C(=O)N[C@H]3C[C@H]4C(=O)N(C)CC(=O)N4C3)cc2[nH]1,inconclusive: 25%
16,O=c1/c(=C/c2cc3c(cc2Cl)OCO3)sc2nc3ccccc3n12,inconclusive: 25%
17,O=Cc1ccc(OCC(=O)O)c(I)c1,inactive
18,CC(C)(C)c1ccnc(N[C@H]2CO[C@H]3[C@@H]2OC[C@@H]3NC(=O)c2ccc(C(F)(F)F)cc2)n1,inconclusive: 22%
19,CCc1ccc(CNc2ccc3c(c2)ncn3C)cc1,inconclusive: 26%
20,O=C(CCCn1c(=O)c2sccc2n(Cc2ccc(F)cc2Cl)c1=O)NCc1ccco1,inconclusive: 18%
21,Cc1cccc(N2C(=O)CSC2c2ccc(Br)cc2)c1 (stereo unspecified),inactive
22,COc1ccc2c(c1)CCc1c(C(=O)NC3CCCC3)noc1-2,inactive
